Results on 1 molecule are retold here after patent publication US20100256357A1, “HETEROCYCLES USEFUL AS INHIBITORS OF CARBONIC ANHYDRASE” (Agouron Pharmaceuticals, Inc., priority 2006, published 2010).

By UniProt entry, the sequences of proteins in these tests, tags left out. Residues count along the entry.
UniProt P22748, 19-284 limits assumed: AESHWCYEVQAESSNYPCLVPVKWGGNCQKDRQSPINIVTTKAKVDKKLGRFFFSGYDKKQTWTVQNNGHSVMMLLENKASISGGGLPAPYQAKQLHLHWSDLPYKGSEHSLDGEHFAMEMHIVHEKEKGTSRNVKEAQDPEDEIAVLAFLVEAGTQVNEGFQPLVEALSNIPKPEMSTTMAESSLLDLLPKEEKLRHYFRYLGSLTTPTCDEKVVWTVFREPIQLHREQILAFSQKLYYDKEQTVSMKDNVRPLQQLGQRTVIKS
UniProt P00915, whole entry: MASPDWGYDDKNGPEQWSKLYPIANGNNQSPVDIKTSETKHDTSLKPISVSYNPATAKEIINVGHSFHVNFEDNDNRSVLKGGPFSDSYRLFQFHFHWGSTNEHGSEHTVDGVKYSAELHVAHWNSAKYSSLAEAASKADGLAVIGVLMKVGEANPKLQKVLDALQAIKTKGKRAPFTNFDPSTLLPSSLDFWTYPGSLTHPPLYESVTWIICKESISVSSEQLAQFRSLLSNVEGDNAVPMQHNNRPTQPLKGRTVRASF

For test [1], the target named is human CA-IV (Homo sapiens, UniProt P22748). The test is described as follows: Carbonic Anhydrase-IV (CA-IV) Fluorescence Polarization Assay-IC50 Determination. It is filed as binding. The following applies: read-out: IC50_CAIV. (In fluorescence polarisation assays a small probe gives low polarisation when free and higher when bound to something large.)
The target in test [2] is CAI (Homo sapiens, UniProt P00915). Description: CAI IC50 (no method described). To be noted: read-out: IC50_CAI. In kind it is biochemical.
Test [3] deals with human CA-II (Homo sapiens, UniProt P00918). The test is described as follows: Carbonic Anhydrase-II (CA-II) Fluorescence Polarization Tight Binding Assay-Kd Determination. To be noted: read-out: Kd_CAII.

Structures were worked out from names or drawings and are uncertain.

As to `CCCCN(C)C(=O)c1nc(Cc2ccccc2)n(-c2ccc(S(N)(=O)=O)cc2F)n1`, the IC50 stood at 0.169 µM in test [1] and 0.116 µM in test [2]. Also, in test [3], the Kd was determined as 0.00024 µM.
